Data published in PubChem BioAssay AID493014 (National Center for Advancing Translational Sciences (NCATS), 2011).
Some of the results follow. Further columns of the screen follow, without active or inactive calls. Most of these compounds were active or inconclusive in the main read-out, so they are no random draw. Potencies come from curve fits of mixed quality, noted in brackets.

Experiment: qHTS Assay to Find Inhibitors of Chronic Active B-Cell Receptor Signaling
Conditions: ABC-DLBCL IkBa-CBG/CBR reporter, luminescence ratio (green luciferase fused to IkBa over red control in TMD8 lymphoma cells), 4 h
In short: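 Doxycycline induced both beetle luciferases in TMD8 lymphoma cells; IKK-driven degradation limits the IkappaBalpha-fused green signal, while red luminescence normalises for cell number and nonspecific effects. Compounds tested up to 46 uM, 4 hrs.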

[1] = measured here: CBR red luminescence, cell number
[2] = measured here: IkBa-CBG green luminescence

SMILES: COc1ccc(C2=NC(C)(C)Cc3cc(OC)c(OC)cc32)cc1OC
- AC50 [1]: 14.1 µM [rising, partial curve, poor fit]
- AC50 [2]: 11.2 µM [falling, partial curve]

SMILES: O=C(/C=C/C=C/c1ccccc1)c1ccco1
- AC50 [1]: 35.5 µM [falling, single point]

SMILES: N#CC1=C(S)N(c2ccc(F)cc2)C2(CCCCC2)NC1=O
- AC50 [2]: 35.5 µM [falling, single point]

SMILES: CC(=O)N1CCOc2ccc(S(=O)(=O)NCC3CCC(C(=O)Nc4ccc(C)cn4)CC3)cc21 (stereo unspecified)
- AC50 [1]: 14.1 µM [falling, single point]

SMILES: COc1ccccc1NC(=O)c1nn(-c2ccccc2)ccc1=O
- AC50 [1]: 18.4 µM [falling, partial curve, poor fit]

SMILES: COc1cc(NC(=O)c2ccc(Cl)cc2Cl)ccc1-c1cc2ccccc2oc1=O
- AC50 [1]: 3.55 µM [rising, single point]

SMILES: NC(Cc1ccccc1)C(O)(c1ccccc1)c1ccccc1 (stereo unspecified)
- AC50 [1]: 35.5 µM [falling, single point]

SMILES: COc1ccc(C(=O)C2CCN(C(=S)Nc3ccc(F)cc3)CC2)cc1
- AC50 [1]: 22.4 µM [rising, single point]

SMILES: CCOC(=O)C1CCN(S(=O)(=O)Cc2ccc(Cl)cc2)CC1
- AC50 [2]: 3.26 µM [rising, partial curve, poor fit]

SMILES: COc1ccc(S(=O)(=O)N2CCN(CCc3ccccc3)CC2)cc1
- AC50 [1]: 2 µM [rising, partial curve]

SMILES: CCc1ccc(N(CC(=O)NCc2cccnc2)S(=O)(=O)c2ccccc2)cc1
- AC50 [1]: 6.31 µM [falling, partial curve, poor fit]

SMILES: O=[N+]([O-])c1ccc(CSc2nnc(-c3cccnc3)o2)cc1
- AC50 [1]: 25.1 µM [rising, single point]

SMILES: Nc1nc(C23CC4CC(CC(C4)C2)C3)[nH]c(=O)n1
- AC50 [1]: 3.98 µM [rising, full curve, poor fit]

SMILES: Cc1ccc(Cn2c(CO)cnc2SCC(=O)Nc2cccc(F)c2)cc1
- AC50 [1]: 5.01 µM [rising, full curve, poor fit]

SMILES: Cc1ccc(NC(=O)CCn2c(=S)oc3ccccc32)cc1F
- AC50 [1]: 35.5 µM [rising, single point]

SMILES: COc1ccc(-c2nn(C)c(=O)c3ccccc23)cc1NC(=O)Cn1nc(C)c2ccccc2c1=O
- AC50 [1]: 29.1 µM [falling, single point]

SMILES: COc1ccc(Nc2cc(C(=O)NCc3ccco3)c3ccccc3n2)c(OC)c1
- AC50 [1]: 5.8 µM [falling, partial curve]
- AC50 [2]: 3.26 µM [rising, partial curve, poor fit]

SMILES: C=CCC[C@@H](Cc1ccc(F)cc1)C(=O)OC[C@@H](NC(=O)[C@H](CC=C)CC(=O)N(CCO)Cc1ccccc1)c1ccccc1
- AC50 [1]: 4.61 µM [falling, partial curve]
- AC50 [2]: 5.8 µM [rising, partial curve, poor fit]

SMILES: CCOCc1nc(C)c(Cl)c(NS(=O)(=O)c2ccc(N)cc2)n1
- AC50 [1]: 0.0058 µM [rising, full curve, poor fit]

SMILES: Cc1cc(OCC(=O)NC2CC(C)(C)NC(C)(C)C2)c(C)cc1Br
- AC50 [1]: 11.2 µM [falling, single point]

SMILES: COC(=O)c1cc(C)sc1NC(=O)CC1Nc2ccccc2NC1=O (stereo unspecified)
- AC50 [1]: 35.5 µM [falling, single point]

SMILES: Cc1ccc(/C=N/NC(=S)Nc2cccc(S(=O)(=O)N(C)C)c2)o1
- AC50 [1]: 35.5 µM [falling, single point]

SMILES: COc1ccc(C(CNC(=O)c2ccccc2SC)N(C)C)cc1 (stereo unspecified)
- AC50 [1]: 11.2 µM [falling, partial curve]

SMILES: N#CC1=C(N)N2C(=C(C#N)C1c1ccc(Br)cc1)Nc1ccccc12 (stereo unspecified)
- AC50 [1]: 2.31 µM [falling, partial curve, poor fit]

SMILES: COc1ccc(CN=C(Nc2ccccc2)SC2CC(=O)NC2=O)cc1 (stereo unspecified)
- AC50 [1]: 35.5 µM [falling, single point]

SMILES: C=CCSC1=C(C#N)C(c2ccc(OCC)cc2)CC(=O)N1 (stereo unspecified)
- AC50 [1]: 0.0082 µM [rising, full curve, poor fit]

SMILES: Cc1ccc(-c2nn(-c3ccccc3)cc2CSC(=N)N)cc1
- AC50 [1]: 14.1 µM [falling, partial curve, poor fit]

SMILES: CC(C)c1ccc(C2NC(=O)NC3=C2CCc2ccccc23)cc1 (stereo unspecified)
- AC50 [1]: 16.4 µM [rising, partial curve, poor fit]

SMILES: O=C1NC[C@@H](Cc2cccc3ccccc23)N(CCc2cc(C(F)(F)F)cc(C(F)(F)F)c2)C1=O
- AC50 [1]: 22.4 µM [falling, single point]

SMILES: N#Cc1cc(-c2ccccc2)nc(NN)n1
- AC50 [1]: 35.5 µM [falling, single point]

SMILES: COc1ccc(CN(C)C(=O)c2ccccc2OCc2c(C)noc2C)cc1OC
- AC50 [1]: 13 µM [rising, partial curve, poor fit]

SMILES: COc1cccc(C(=O)Nc2nc(C)cs2)c1
- AC50 [1]: 11.2 µM [falling, partial curve, poor fit]

SMILES: COCCNC(=O)c1ccc2c(=O)n(Cc3ccco3)c(SCC(=O)NC3CCCCC3)nc2c1
- AC50 [1]: 35.5 µM [rising, single point]

SMILES: O=C(O)c1ccc(NC(CSCc2cccc(F)c2)C(=O)O)c([N+](=O)[O-])c1 (stereo unspecified)
- AC50 [1]: 4.61 µM [falling, full curve]

SMILES: Cc1ccc(C(C)C)c(OCCCN2CC(C)OC(C)C2)c1 (stereo unspecified)
- AC50 [1]: 7.31 µM [rising, partial curve, poor fit]

SMILES: Cc1cc(Nc2ccccc2)c2c([N+](=O)[O-])cc(C)c(C)c2n1
- AC50 [1]: 14.6 µM [rising, single point]

SMILES: CCC1(c2ccccc2)NC(=O)N(CC(=O)Nc2cc(S(=O)(=O)N3CCCCCC3)ccc2OC)C1=O (stereo unspecified)
- AC50 [1]: 0.164 µM [rising, full curve]

SMILES: Cc1ccc(C2(C)NC(=O)N(CC(=O)Nc3c(C)n(C)n(-c4ccccc4)c3=O)C2=O)cc1 (stereo unspecified)
- AC50 [1]: 29.1 µM [rising, single point]

SMILES: CN(C(=O)CSCC(=O)Nc1ccc(Cl)cc1)C1CCCCC1
- AC50 [1]: 29.1 µM [falling, single point]

SMILES: CC(C)(C)Nc1nc(N2CCCC2)nc(N2CCCC2)n1
- AC50 [1]: 1.26 µM [rising, full curve]

SMILES: O=C(Oc1cccc(NC(=O)c2ccco2)c1)c1cccc(S(=O)(=O)N2CCCCC2)c1
- AC50 [1]: 13 µM [falling, partial curve, poor fit]

SMILES: O=C(c1ccccc1-c1nc(-c2ccc(Cl)cc2)no1)N1CCCC1
- AC50 [1]: 3.98 µM [rising, full curve, poor fit]

SMILES: COc1ccc(C(=O)C2CCCN(Cc3cc(Cl)ccc3O)C2)c(OC)c1 (stereo unspecified)
- AC50 [1]: 35.5 µM [falling, partial curve, poor fit]

SMILES: Cc1ccc(NC(=O)C2COc3ccccc3O2)cc1C (stereo unspecified)
- AC50 [1]: 0.398 µM [rising, full curve]

SMILES: O=C(COC(=O)c1ccc(NS(=O)(=O)c2cccs2)cc1O)NCc1ccccc1
- AC50 [2]: 22.4 µM [falling, single point]

SMILES: CCCOc1ccc(C(=O)C(CCC(CNCC)C(=O)c2ccc(OCCC)cc2)CNCC)cc1 (stereo unspecified)
- AC50 [1]: 6.51 µM [falling, full curve]

SMILES: Cn1c(C(=O)N[C@@H](Cc2ccccc2)C(=O)O)cc2cc(Cl)ccc21
- AC50 [1]: 8.91 µM [falling, partial curve, poor fit]

SMILES: CCOC(=O)c1cc(C)sc1N1C(=O)C2C3C=CC(C3)C2C1=O (stereo unspecified)
- AC50 [1]: 16.4 µM [falling, single point]

SMILES: CCS(=O)(=O)Nc1cccc(C2=NN(S(=O)(=O)c3ccc(F)cc3)C(c3cccs3)C2)c1 (stereo unspecified)
- AC50 [1]: 18.4 µM [falling, single point]

SMILES: CC(C)c1nnc(NC(=O)c2cc3cc(Br)ccc3oc2=O)s1
- AC50 [1]: 35.5 µM [rising, single point]

SMILES: Cc1ccc(OCc2cc(C(=O)NCCc3cccnc3)no2)cc1C
- AC50 [1]: 3.55 µM [falling, full curve, poor fit]

SMILES: CCOC(=O)c1nc(N/N=C/c2ccccc2)sc1Br
- AC50 [1]: 3.98 µM [rising, partial curve, poor fit]

SMILES: CCOc1cccc2cc(C(=O)Nc3cc(C)on3)c(=O)oc12
- AC50 [1]: 3.26 µM [falling, full curve]

SMILES: N#CC1=C(N)Oc2n[nH]c(-c3cccs3)c2C1c1ccncc1 (stereo unspecified)
- AC50 [1]: 14.1 µM [falling, single point]

SMILES: O=C(O)c1ccc(/C=C2\SC(=Nc3ccccc3)N(c3ccccc3)C2=O)cc1
- AC50 [1]: 6.31 µM [falling, full curve]

SMILES: CCOc1cccc(/C=N/Nc2ccc(S(=O)(=O)N(CC)CC)cn2)c1O
- AC50 [1]: 13 µM [rising, partial curve, poor fit]

SMILES: CCOC(=O)C1(Cc2cccc(F)c2)CCN(Cc2ccon2)CC1
- AC50 [1]: 5.62 µM [falling, single point]

SMILES: COCCn1ccc2c(OCC(=O)Nc3cccc(NC(C)=O)c3)cccc2c1=O
- AC50 [1]: 3.66 µM [falling, partial curve]

SMILES: Cc1c(C(C)C)c(=O)n(-c2ccc(S(=O)(=O)NC3CCCCC3)cc2)n1C
- AC50 [1]: 35.5 µM [falling, single point]

SMILES: CCCc1cc(=O)n2[nH]c(C(F)(F)F)nc2n1
- AC50 [1]: 35.5 µM [falling, single point]

SMILES: CCN1CCN(C(=O)C2CCN(C(=O)c3cc4sccc4n3CC)CC2)CC1
- AC50 [1]: 6.51 µM [falling, single point]

SMILES: CCCCCc1ccc(C2=NNC(=O)CC2)cc1
- AC50 [1]: 0.794 µM [rising, full curve, poor fit]

SMILES: S=c1nc(-c2cc(Cl)cc(Cl)c2)[nH][nH]1
- AC50 [1]: 15.8 µM [rising, single point]
